PubChem BioAssay AID1259254 | NCATS – 2017
Purpose: 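Finding genes that stop cells copying their DNA twice in one cycle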 (primary screen). System: human HCT116 colorectal cancer cells. Reagents: single siRNA against human genes. Duration: 3 days. Measured: 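Imaged Hoechst DNA stain sorts each cell into a cycle phase by DNA amount; per plate, G2 fraction set to 0% for non-targeting and 100% for GMNN siRNA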. Scale: G2 robust z-score and G2 cells, % of GMNN control: higher = more G2 cells, more excess DNA replication. Active means: 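An siRNA counts as active if its G2 robust z-score lies at least 5 MADs above the screen median; here such calls match roughly 38% of GMNN control or more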.
In all, the deposit lists about 59,000 reagents; below is a part drawn at random. About 1,550 of them (2.6%) count as active. 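G2 share is only a proxy for re-replication; each gene was hit by three separate siRNAs, and active genes were retested.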 Entries without a mark were called inactive. Reagents against one gene are numbered here. Not all columns of the deposit are shown. The record does not give: the amount of reagent.

target gene,siRNA no.,G2 robust z-score,"G2 cells, % of GMNN control"
STX16 (syntaxin 16),1,1.79,15.6
STX16 (syntaxin 16),2,-0.392,0.212
STX16 (syntaxin 16),3,-0.341,0.569
USP29 (ubiquitin specific peptidase 29),1,-0.221,1.41
USP29 (ubiquitin specific peptidase 29),2,-0.203,1.54
USP29 (ubiquitin specific peptidase 29),3,-0.756,-2.35
TNFRSF10C (TNF receptor superfamily member 10c),1,3.83,29.9
TNFRSF10C (TNF receptor superfamily member 10c),2,4.97,37.9
TNFRSF10C (TNF receptor superfamily member 10c),3,-0.428,-0.043
SDHAF1 (succinate dehydrogenase complex assembly factor 1),1,-0.074,2.45
SDHAF1 (succinate dehydrogenase complex assembly factor 1),2,-0.139,1.99
SDHAF1 (succinate dehydrogenase complex assembly factor 1),3,0.655,7.57
REEP4 (receptor accessory protein 4),1,3.06,24.5
REEP4 (receptor accessory protein 4),2,-0.368,0.38
REEP4 (receptor accessory protein 4),3,1.89,16.3
GATA6 (GATA binding protein 6),1,1.22,11.6
GATA6 (GATA binding protein 6),2,1.74,15.2
GATA6 (GATA binding protein 6),3,0.0617,3.4
WFDC12 (WAP four-disulfide core domain 12),1,-0.443,-0.147
WFDC12 (WAP four-disulfide core domain 12),2,0.383,5.66
WFDC12 (WAP four-disulfide core domain 12),3,-0.258,1.15
MAGI3,1,-1.17,-5.28
MAGI3,2,0.0393,3.24
MAGI3,3,-0.0209,2.82
CTXN3 (cortexin 3),1,-0.591,-1.19
CTXN3 (cortexin 3),2,-0.993,-4.02
CTXN3 (cortexin 3),3,-0.544,-0.857
RPL32P36 (ribosomal protein L32 pseudogene 36),1,1.84,15.9
RPL32P36 (ribosomal protein L32 pseudogene 36),2,2.15,18.1
RPL32P36 (ribosomal protein L32 pseudogene 36),3,1.84,15.9
NRBP1 (nuclear receptor binding protein 1),1,1.51,13.6
NRBP1 (nuclear receptor binding protein 1),2,3.87,30.2
NRBP1 (nuclear receptor binding protein 1),3,0.0624,3.41
AP1G1 (adaptor related protein complex 1 subunit gamma 1),1,-0.723,-2.12
AP1G1 (adaptor related protein complex 1 subunit gamma 1),2,0.808,8.65
AP1G1 (adaptor related protein complex 1 subunit gamma 1),3,0.487,6.4
GDF9 (growth differentiation factor 9),1,0.252,4.74
GDF9 (growth differentiation factor 9),2,5.73 (active),43.3
GDF9 (growth differentiation factor 9),3,-1,-4.09
PRKY (protein kinase Y-linked (pseudogene)),1,-1.08,-4.64
PRKY (protein kinase Y-linked (pseudogene)),2,-0.517,-0.668
PRKY (protein kinase Y-linked (pseudogene)),3,0.979,9.85
HAGH (hydroxyacylglutathione hydrolase),1,1.74,15.2
HAGH (hydroxyacylglutathione hydrolase),2,3.57,28.1
HAGH (hydroxyacylglutathione hydrolase),3,3.01,24.2
SCGB2B2 (secretoglobin family 2B member 2),1,-0.957,-3.76
SCGB2B2 (secretoglobin family 2B member 2),2,1.46,13.2
SCGB2B2 (secretoglobin family 2B member 2),3,0.538,6.75
LOC729218,1,-0.0495,2.62
LOC729218,2,-0.0231,2.81
LOC729218,3,-0.0106,2.89
LOC729218,4,-0.212,1.48
LOC729218,5,3.63,28.5
LOC729218,6,-0.114,2.17
METTL14,1,0.826,8.78
METTL14,2,1.62,14.4
METTL14,3,3.2,25.5
TM2D3 (TM2 domain containing 3),1,0.26,4.8
TM2D3 (TM2 domain containing 3),2,1.42,13
TM2D3 (TM2 domain containing 3),3,1.78,15.5
AHDC1 (AT-hook DNA binding motif containing 1),1,-0.444,-0.159
AHDC1 (AT-hook DNA binding motif containing 1),2,0.17,4.16
AHDC1 (AT-hook DNA binding motif containing 1),3,0.789,8.52
SIRPG (signal regulatory protein gamma),1,-0.267,1.09
SIRPG (signal regulatory protein gamma),2,0.683,7.77
SIRPG (signal regulatory protein gamma),3,-0.147,1.93
NADSYN1 (NAD synthetase 1),1,-1.23,-5.7
NADSYN1 (NAD synthetase 1),2,-0.0347,2.72
NADSYN1 (NAD synthetase 1),3,-1.07,-4.56
KRT76 (keratin 76),1,2.02,17.2
KRT76 (keratin 76),2,-1.02,-4.2
KRT76 (keratin 76),3,-0.466,-0.313
CIZ1 (CDKN1A interacting zinc finger protein 1),1,-1.23,-5.69
CIZ1 (CDKN1A interacting zinc finger protein 1),2,-0.476,-0.383
CIZ1 (CDKN1A interacting zinc finger protein 1),3,-0.545,-0.868
PLSCR1 (phospholipid scramblase 1),1,0.268,4.85
PLSCR1 (phospholipid scramblase 1),2,-0.865,-3.12
PLSCR1 (phospholipid scramblase 1),3,-0.711,-2.03
STOML3 (stomatin like 3),1,4.05,31.4
STOML3 (stomatin like 3),2,0.551,6.84
STOML3 (stomatin like 3),3,-0.517,-0.667
CRBN (cereblon),1,-0.361,0.424
CRBN (cereblon),2,-0.468,-0.329
CRBN (cereblon),3,1.07,10.5
ADK (adenosine kinase),1,0.587,7.1
ADK (adenosine kinase),2,-0.041,2.68
ADK (adenosine kinase),3,-0.608,-1.31

Targets above whose target name starts with L or l (6):
target gene,siRNA no.,G2 robust z-score,"G2 cells, % of GMNN control"
LOC729218,1,-0.0495,2.62
LOC729218,2,-0.0231,2.81
LOC729218,3,-0.0106,2.89
LOC729218,4,-0.212,1.48
LOC729218,5,3.63,28.5
LOC729218,6,-0.114,2.17
